PubChem BioAssay AID504793, Drosophila RNAi Screening Center, 2011
Test: 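Whole-genome screen for parts of the DNA damage checkpoint at G2/M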 (primary screen). System: Drosophila S2R+ cells. Knock-down reagent: long dsRNA against Drosophila genes, about 0.25 µg dsRNA per well. Time to read-out: 4 days of dsRNA, then 4 hours of drug before read-out. Treatment: doxorubicin 0.5 µM for 4 hours to cause double-strand breaks, in cells also given a low, harmless dose of dsRNA against nbs to sensitise the assay. Measured: 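Per-well count of mitotic cells stained for phospho-histone H3 after doxorubicin exposure, used as mitotic index; counts are raw and not normalised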. Reading the numbers: mitotic cells: higher = more cells in mitosis, weaker G2 arrest. Call rule: 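a call needs confirmation in secondary tests, with other dsRNAs and a check of mitotic timing without damage, not just a high primary count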. Calls: active = confirmed in follow-up tests; inactive = not confirmed.
The deposit covers about 23,000 reagents; below is an unselected part of those that have a named target and a result. Of all reagents, 62 (0.27%) got an active call. 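Calls come from follow-up tests whose scores are not deposited, so confirmed genes may have low counts here; counts are not normalised per plate.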 Raw values vary from plate to plate and are shown uncorrected.

Target gene,amplicon,"mitotic cells, replicate 1","mitotic cells, replicate 2",outcome
Chrac-16,DRSC20343,5,,inactive
Chrac-16,DRSC23575,1,,inactive
CG14220,DRSC19577,6,,inactive
CG14220,DRSC26345,6,,inactive
dmt,DRSC16932,45,,inactive
CG45067,DRSC08414,8,,inactive
CG45067,DRSC27186,7,,inactive
CG6962,DRSC16153,5,,inactive
CG6962,DRSC28894,4,,inactive
enok,DRSC04096,6,,inactive
Tom40,DRSC18796,8,,inactive
CrzR,DRSC09781,2,,inactive
CrzR,DRSC09782,5,,inactive
CG2126,DRSC15418,6,,inactive
CG17819,DRSC15279,12,,inactive
ATP7,DRSC19819,10,,inactive
CG15888,DRSC15125,3,,inactive
CG15888,DRSC26530,10,,inactive
Ugt316A1,DRSC10376,5,,inactive
CG3061,DRSC15460,7,,inactive
CG3061,DRSC26419,7,,inactive
CG13445,DRSC09992,7,,inactive
CG13445,DRSC25076,5,,inactive
CG18304,DRSC02664,3,,inactive
CG18304,DRSC28389,2,,inactive
Gr39b,DRSC01848,5,7,inactive
Gr39b,DRSC26464,4,,inactive
idc,DRSC15680,9,,inactive
hdly,DRSC15849,6,,inactive
CG33299,DRSC01085,3,,inactive

Continued (2 carried over from the part before).
Target gene,amplicon,"mitotic cells, replicate 1","mitotic cells, replicate 2",outcome
hdly,DRSC15849,6,,inactive
CG33299,DRSC01085,3,,inactive
Ptp69D,DRSC11258,6,,inactive
CG15721,DRSC19688,12,,inactive
meigo,DRSC15877,9,,inactive
meigo,DRSC25836,2,,inactive
HBS1,DRSC08544,9,,inactive
HBS1,DRSC28426,7,,inactive
Kdm2,DRSC14286,4,,inactive
Ppt1,DRSC17806,5,,inactive
Nek2,DRSC18124,18,,inactive
Nek2,DRSC26714,4,,inactive
CG32277,DRSC08196,7,,inactive
CG8850,DRSC07287,8,,inactive
CG8850,DRSC25965,3,,inactive
rk,DRSC03602,10,,inactive
TwdlS,DRSC14737,13,,inactive
